Measurements reported in PubChem BioAssay AID1224826 (NIAID, 2016)

Aim: 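Knock-downs that raise or lower Tnf reporter signal after endotoxin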 (primary screen)
Cells: RAW264.7 G9 macrophages from mouse bearing reporters for p65 (GFP) and the Tnf promoter (mCherry)
Knock-down reagent: siRNA pool against mouse genes, 100 nM
Duration: 16 h of LPS stimulation, after 2 days of siRNA transfection
Conditions: bacterial lipopolysaccharide (Salmonella minnesota R595), 10 ng/ml
Read-out: 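Imaged Tnf reporter mCherry in nuclei, minus background, normalised per plate to the median and expressed as robust z-scores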
Scale: Tnf reporter robust z-score: higher = stronger Tnf promoter reporter signal after LPS; Tnf reporter intensity: higher = stronger Tnf promoter reporter signal
Rule for the call: 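a well counts as active at a score of -1.3 or below (Tlr4 knock-down control median) or above 3 (raised signal); controls and wells holding fewer than 50 cells are excluded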
Meaning of the calls: active = Tnf reporter clearly lowered or raised; inactive = no clear change in Tnf reporter
The whole screen tested about 17,000 reagents; below is a random part of them. About 1,110 of all reagents (6.6%) were called active. 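Active means lowered or raised reporter signal; replicate intensities are raw and not normalised per plate.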 Reagents against one gene are numbered here. A reagent listed more than once was tested more than once; the source does not tell the runs apart.

target | reagent | Tnf reporter robust z-score | fewer than 50 cells in well | Tnf reporter intensity, replicate 1 | Tnf reporter intensity, replicate 2 | Call
Tex15 | 1 | 1.03 | enough cells in well | 153 | 130 | inactive
Padi3 | 1 | – | fewer than 50 cells per well; well left out of calls | 108 | 131 | inactive
Arglu1 | 1 | 0.35 | enough cells in well | 214 | 198 | inactive
Gstm4 | 1 | -0.91 | enough cells in well | 150 | 127 | inactive
Wdr27 | 1 | -0.96 | enough cells in well | 194 | 36.1 | inactive
Thoc7 | 1 | -1.15 | enough cells in well | 167 | 45.5 | inactive
Thoc7 | 2 | -0.73 | enough cells in well | 138 | 139 | inactive
L1cam | 1 | -0.82 | enough cells in well | 172 | 110 | inactive
Scyl3 | 1 | -0.35 | enough cells in well | 106 | 137 | inactive
Scyl3 | 1 | – | fewer than 50 cells per well; well left out of calls | 68.2 | 36.6 | inactive
Mturn | 1 | 1.47 | enough cells in well | 327 | 120 | inactive
Dbndd1 | 1 | -0.21 | enough cells in well | 161 | 50.4 | inactive
H2al2a | 1 | -0.52 | enough cells in well | 180 | 67.7 | inactive
Cd59b | 1 | -1.2 | enough cells in well | 164 | 107 | inactive
Card10 | 1 | -1.19 | enough cells in well | 153 | 90.9 | inactive
Apex2 | 1 | 1.65 | enough cells in well | 305 | 219 | inactive
Prdm16 | 1 | -0.17 | enough cells in well | 236 | 178 | inactive
Kcnmb2 | 1 | -1.11 | enough cells in well | 135 | 72.2 | inactive
Gm5105 | 1 | -1.23 | enough cells in well | 122 | 25.8 | inactive
Cep78 | 1 | 0.43 | enough cells in well | 182 | 186 | inactive
Trpv2 | 1 | 0.05 | enough cells in well | 216 | 255 | inactive
Ifna12 | 1 | -0.37 | enough cells in well | 190 | 145 | inactive
Tcam1 | 1 | 1.55 | enough cells in well | 177 | 96.7 | inactive
Magea6 | 1 | 1.47 | enough cells in well | 301 | 204 | inactive

Records above whose gene name begins with G or g:
target | reagent | Tnf reporter robust z-score | fewer than 50 cells in well | Tnf reporter intensity, replicate 1 | Tnf reporter intensity, replicate 2 | Call
Gstm4 | 1 | -0.91 | enough cells in well | 150 | 127 | inactive
Gm5105 | 1 | -1.23 | enough cells in well | 122 | 25.8 | inactive
